## Screening data, single-dose tests

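Whole-cell growth test on Mycobacterium tuberculosis, read after 3 days in glucose-containing 7H9 medium; the read-out is not stated. Compounds at 50 µM. Direction is inferred from retests: higher values go with more growth inhibition. Of about 69,000 compounds tested this way, about 760 (1.1%) reached 50% or more in at least one test.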

The filed quantity is “Percent Effect” (%). How 0% and 100% were set is not recorded. Most values in the screen are low, and negative values occur. This is an unselected part of the compounds tested. Two or more numbers in one place are separate tests of the same structure; such repeats can differ widely.

compound | effect
COc1ncc(C(=O)N2CCC(c3nc(C)n4ccsc34)CC2)cn1 | -0.454%
O=C(NCC1CC1)C1CCC2(CCN(C(=O)c3ccccn3)CC2)O1.O=C(O)C(F)(F)F (configuration not stated) | -20.91%
Cc1ccc(Cl)cc1NC(=O)Cn1cc(C(=O)O)ccc1=O | -23.95%
CC(=O)NCc1ccc(S(=O)(=O)NC(=O)c2ccc3c(c2)COC3)cc1 | -11.5%
COCCOCC(=O)NC(C#N)c1c(F)cccc1Cl (configuration not stated) | -32.41%
O=C(NCC(O)c1ccoc1)Nc1cccs1 (configuration not stated) | -7.418%
CCSc1cc(C(=O)NCCNC(=O)Cc2ccccc2)ccn1 | -5.663%
N#CCCn1cnc2c(F)cc(Br)cc2c1=O | -8.542%
O=C(O)[C@H]1C[C@H](C(=O)NCc2ccncc2)CN(CCC(F)(F)F)C1 | -13.24%
O=C(c1cc(CC2(NCc3ccccc3)COC2)no1)N1CCCCC1 | -1.579% & -13.22%
Cc1ccc(NC2COC3(CCN(Cc4ccn(C)n4)CC3)C2)nn1.O=C(O)C(F)(F)F (configuration not stated) | 29.71% & 2.842%
CCN(Cc1cccs1)C(=O)c1ccc(=O)n(C)c1 | -55.6%
CC(C)c1nc(CN(C)Cc2cnc(N3CCOCC3)nc2)no1 | -19.6%
COCc1nc2cc(NCc3ccncc3)ccc2o1 | 15.76%
CN(C)c1cc(C(=O)N2CCCC2)ccn1 | 34.46%
COc1ncc(-c2ccc(C(N)=O)cc2)c(OC)n1 | -1.5% & 11.71%
CC(C)(C)CC(=O)NCCn1ccc(-c2ccncc2)n1 | 11.86%
COc1ncccc1CNC(=O)N1CCC(CN2CCOCC2)CC1 | -37.28% & -11.3%
FC(F)(F)Cn1nnnc1SCCN1CCCCC1 | -3.807%
Cc1ccc(CN(C)C(=O)c2scnc2C)cc1 | -7.68%
COC(=O)c1ccc(S(=O)(=O)NC2CNC(=O)C2)cc1 (configuration not stated) | 37.88%
Cc1ccn(CCC(=O)N2CCOC(c3nc(-c4cccs4)no3)C2)n1 (configuration not stated) | 17.2%
O=C(O)C(F)(F)F.O=C(O)C(F)(F)F.[H][C@@]12CCCO[C@]1([H])[C@H](N(C)Cc1ccco1)CN2Cc1c(C)noc1C | -16.68%
Cc1cc(C(F)(F)F)nn1C(C)C(=O)Nc1ccc(Cl)cn1 (configuration not stated) | 23.23%
CCn1c(N)nc2cc(C(=O)N3CC(c4ccccn4)C3)cnc21 | 20.83%
CN(C)c1nccc(C2CCCN(C(=O)CO)C2)n1 (configuration not stated) | 31.15%
CN1CCN(CC2CC2)C(=O)C12CCN(C(=O)CC(F)(F)F)CC2.O=C(O)C(F)(F)F | 19.48%
CCn1nccc1C(=O)NC(Cn1cccn1)C(C)(C)C (configuration not stated) | -5.745%
O=C(O)C(F)(F)F.[H][C@@]12CCN(c3ncccn3)[C@@]1([H])CCN2S(=O)(=O)c1cccs1 | 5.88%
O=S(=O)(Cc1ccccc1CN1CC[C@H](CO)[C@H](O)C1)c1ccccc1 | -7.414%
CCOCCn1nc(C)cc1C(=O)N1CCN(C(C)C)C(CC)C1 (configuration not stated) | 8.227%
CCC1(CC)CC(=O)N(CC(O)c2cc(F)ccc2F)C1=O (configuration not stated) | 22.5%
Cc1ccc(N2CCCC3(COCCN(c4nccs4)C3)C2)nn1.O=C(O)C(F)(F)F.O=C(O)C(F)(F)F (configuration not stated) | 8.282%
CC[C@H](C)Nc1nccc(-c2cnc3sc(C)cn3c2=O)n1 | 17.57%
CC(Sc1nnnn1C1CCOCC1)C(F)(F)F (configuration not stated) | -0.7482%
Oc1ccc(-c2c(-c3ccccc3)ncn2C2CCNC2)cc1 (configuration not stated) | -4.476%
Cl.O=C(CN1CCCC1=O)N1CCC(O)(Cn2ccc3ccncc32)CC1 | 22.04%
CC(C)(C)NC(=O)c1nn(C2CCS(=O)(=O)C2)c2c1CCCC2 (configuration not stated) | 12.26%
Cc1[nH]c2nc(CNc3ccccc3Cl)nn2c(=O)c1C | 17.96%
Cc1nnc(CN2CCC(N(C)Cc3nnc(C4CC4)n3C)C2)o1 (configuration not stated) | 15.16%
FC(F)CN1CCC(NCCc2ccc(-n3cccn3)cc2)CC1 | 26.54%
O=S(=O)(NCc1ccccc1)NCc1nc(-c2ccncc2)n[nH]1 | -1.317% & -9.948%
CCc1nn(-c2cc(Oc3cccc(C)c3)nc(C)n2)c(N)c1C#N | -0.2676% & 2.501%
COc1ccc(CNC(=O)c2ccoc2CN2CCNC(=O)C2)cc1 | -16.38% & -5.26%
NC(=O)C1CN(C(=O)Nc2ccccc2N2CCCCCC2)CCO1 (configuration not stated) | 5.832%
CC(Oc1cccc(Cl)c1)C(=O)Nc1cnn(CCN(C)C)c1 (configuration not stated) | 5.997% & 8.64%
Cn1ccc(N2CCCC(NC(=O)c3ccc(Cl)o3)C2=O)n1 (configuration not stated) | 0.9537% & -16.32%
O=C(O)C(F)(F)F.O=C(O)C(F)(F)F.O=C(O)C(F)(F)F.[H][C@]12CCN(Cc3ccccn3)[C@@]1([H])CC[C@@H](COCc1ccncc1)O2 | 10.96%
O=C(CCC1CCN(C2CSCCSC2)CC1)NCC1CCCO1 (configuration not stated) | 6.499% & 2.267%
Cc1cnn(C2CN(Cc3nnc(C4CC4)o3)C2)c1 | 11.06%
CN(C)C(=O)c1ccc(-c2cscn2)cc1 | 5.768%
O=C(CCc1ccco1)N1CCc2[nH]nc(COc3ccccc3)c2C1 | -41.73%
[H][C@@]12CCN(C(=O)C3CCCO3)[C@]1([H])CCC(=O)N2Cc1csc(C)n1 (some centres not stated) | 6.858%
CC(C)NC(=O)c1ccc2nnc(C3CN(C)CCN3C)n2c1.O=C(O)C(F)(F)F.O=C(O)C(F)(F)F (configuration not stated) | -11.09%
CCOc1ccc(Cl)cc1CCNC(=O)Cn1nc(C)ccc1=O | -13.04%
CCC[C@@H]1CN(C(=O)CCc2ccco2)C[C@H]1NS(C)(=O)=O | -9.522%
O=C(O)C(F)(F)F.[H][C@@]12CCCO[C@]1([H])[C@H](NC(=O)c1cnoc1C)CN(Cc1ccco1)C2 | 25.61%
Cc1cc(CNc2ccc(-c3nc(C4CC4)no3)cn2)no1 | 29.36%
CN(C1CCCCC1)S(=O)(=O)NCC1Cc2ccccc2O1 (configuration not stated) | 34.8%
O=C(c1cnc(C2CC2)s1)N1CCCC(n2cccn2)C1 (configuration not stated) | 14.03%
COc1cccc(CNc2c(O)c(=O)c2=O)c1 | -12.08%
Cc1nc(CNC(C)c2ccc(OCC(=O)NC3CC3)cc2)cs1 (configuration not stated) | -19.56%
Cc1cc(-n2nc(C3CC3)nc2-c2csnn2)ccn1 | 37.94%
O=C(CCCc1ccccc1)N1CCCC(n2cncn2)C1 (configuration not stated) | -23.31% & -1.837%
CS(=O)(=O)c1ccc(C(=O)N2CCCC(n3cncn3)C2)o1 (configuration not stated) | -15.39%
CC(C(=O)N1CCCC1)S(=O)(=O)Cc1nc(C(C)(C)C)no1 (configuration not stated) | 12.02% & 11.36%
Cc1nc(C)n(CC2CCCN2Cc2cn3ccsc3n2)n1 (configuration not stated) | -4.15%
[H][C@]12CN(C)CCN1C(=O)N(C1CCOCC1)C2 | -3.526% & -10.27%
Cc1nc2ncccn2c1C(=O)N1CCc2[nH]cnc2C1 | -20.66%
Cc1nc2ccnn2c(C)c1CCC(=O)N1CCC(C(N)=O)CC1 | -1.283%
[H][C@]12CC[C@@]3(N=C(C)N(CC(C)C)C3=O)[C@@]1([H])CN(C(=O)NCC(C)C)C2 | -10.63% & -6.752%
CC(=O)NCc1ccc(C(=O)N2CCCc3c(F)ccc(C)c32)cc1 | -13.3% & 12.28%
CCN(CC1CCOC1)C(=O)Nc1ccc(OC)nc1 (configuration not stated) | -59.11%
Cc1cc(N2CCC(C(=O)O)(n3ccc(C(C)C)n3)CC2)nc(N)n1 | -2.974%
COc1ccccc1OC1CCN(C(=O)C2CCCN(C)C2)CC1 (configuration not stated) | -6.376% & -1.24%
Cc1ccccc1-c1noc(CN2CCc3cncnc3C2)n1 | -5.806%
O=C(CCC1CC1)N1C[C@@H](CN2CCCC2)[C@@H](CO)C1 | -11.27%
O=C(O)C(F)(F)F.[H][C@@]12CCN(C3CCCC3)C[C@]1([H])OCCN(Cc1ccc(OC)cc1)C2=O | 0.2639%
COc1ccc(CNc2nc(N3CCOCC3)ns2)cc1 | 15.96%
Cc1nn(CCO)cc1CN1CCCN(C2CCCC2)CC1 | -3.592% & -3.768%
COc1ccc(CNC(=O)CCN2C[C@@H](C)[C@](O)(C3CC3)C2)cc1 | 6.054%
CNc1cncc(C2CCCN2Cc2ccnc(C)n2)n1 (configuration not stated) | 1.124%
COc1cccc(OCCNCc2c(C)nn(C)c2N(C)C)c1 | 9.68%
CC(C(=O)O)N1CC2(CCC1=O)CCN(CCc1ccccc1)CC2 (configuration not stated) | -2.668%
c1ccc2c(N3CCOC(Cn4cccn4)C3)ncnc2c1 (configuration not stated) | -1.439%
Cc1cc(C(F)(F)F)nc(CNC(=O)C2CCCCCN2C)n1 (configuration not stated) | -26.29%
N#Cc1ccc(NC(=O)N2CCCCC2CN2CCCC2=O)cc1 (configuration not stated) | 16.61%
CCN(CC)C(=O)Cn1c(-c2ccc(Cl)cc2)nc(C)c(CCO)c1=O | 2.882%
N[C@H]1CN(C(=O)c2ccccc2Oc2ccccc2)C[C@@H]1C1CC1 | 6.116% & -20.9%
Cc1nc[nH]c1CN(C)CC1CCCN(CCc2ccc(Cl)cc2)C1 (configuration not stated) | 20.24% & 30.03%
CCn1cc(CN2CCCN(C(=O)CCc3nccs3)CC2)cn1 | 17.18%
COc1cc(CN(Cc2ccccn2)CC(C)C)cc2c1OCO2 | 16.18%
CCc1nc(N2CCCC(CCCOC)(C(=O)O)C2)ncc1C (configuration not stated) | 20.48%

Some entries from above, unchanged:

compound,effect
CCn1c(N)nc2cc(C(=O)N3CC(c4ccccn4)C3)cnc21,20.83%
COc1cccc(CNc2c(O)c(=O)c2=O)c1,-12.08%
N#CCCn1cnc2c(F)cc(Br)cc2c1=O,-8.542%
N[C@H]1CN(C(=O)c2ccccc2Oc2ccccc2)C[C@@H]1C1CC1,6.116% & -20.9%
CCc1nc(N2CCCC(CCCOC)(C(=O)O)C2)ncc1C (configuration not stated),20.48%
Cc1nc(C)n(CC2CCCN2Cc2cn3ccsc3n2)n1 (configuration not stated),-4.15%

Data taken from ChEMBL document CHEMBL3988442, “University of Dundee, Small-Polar-MMV Screening Library” (2021).